{"source": "patent US11484511B2", "about": "“Pharmaceutical composition comprising THA as effective ingredient for treatment of prostate cancer” (KOREA UNITED PHARM. INC., priority 2018, dated 2022)", "system": "PC3 cells", "assay": "Cell cycle analysis (PI / PHH3 flow cytometry)", "type": "cell-based", "settings": "30 μM THA, 5 nM BI2536, 24 hours", "experimental": "In order to measure the cell cycle distribution, cells were plated onto a 100 mm dish (5×10^5 cells/well). The cells were fixed with 4° C. PBS, refrigerated in 70% EtOH at 4° C., and cultured for 24 hours. After the 70% EtOH was removed, the PHH3 antibody was treated with a lysing solution composed of 1% bovine serum albumin/0.5% Triton X-100/0.2 mg/ml EDTA to a final concentration of 1:50, and then stained at 37° C. for 15 minutes. Thereafter, the lysing solution was removed, and staining was performed again at 37° C. for 15 minutes using propidium iodide (PI)/Triton X-100/DNAse-free RNAse A. Next, 20,000 cells per experimental group were analyzed using the FACSCALIBUR™ (flow cytometer from BD Biosciences, CA, USA) machine.\nPLK1 is a representative G2/M cell cycle regulatory […], and in order to confirm the effect of blocking the cell cycle of prostate cancer cells according to the treatment with THA, the PC3 cells cultured by the method in Example 1-2 were plated onto a 6-well plate, and then 12 hours later, the cells were treated with 30 μM THA and 5 nM BI2536 for 24 hours. Thereafter, changes in the cell distribution of each of the sub-G1, S, and G2/M phases and the proportion of PH3-positive cells (M phase marker) were observed by the method in Example 1-6.", "note": "Some results were stated once for a whole list of compounds, not compound by compound."}
{"smiles": "CC(=O)c1c(O)cc(O)cc1O", "note": "[THA, 2,4,6-trihydroxyacetophenone]", "values": [{"measurement": "cells observed in the G2/M phase", "result": "≥ 30", "unit": "%"}]}
